Experimental data from doi:10.1101/808311.
Like-named read-outs stand apart in the source and are kept apart here. Results are given in words; binding and its absence hold for the method and conditions named. In cells and extracts the contact can be indirect. A yes stands for co-enrichment or nearness to the bait. Other partners may have been found. For some of these results: Sequences can lack the tags named with a protein.

Protein sequences, listed by entry. Tags and fused reporters are not part of them. Lines headed by an entry give the natural chain unless they say otherwise; changes in a name come on top.
UniProt Q96B77: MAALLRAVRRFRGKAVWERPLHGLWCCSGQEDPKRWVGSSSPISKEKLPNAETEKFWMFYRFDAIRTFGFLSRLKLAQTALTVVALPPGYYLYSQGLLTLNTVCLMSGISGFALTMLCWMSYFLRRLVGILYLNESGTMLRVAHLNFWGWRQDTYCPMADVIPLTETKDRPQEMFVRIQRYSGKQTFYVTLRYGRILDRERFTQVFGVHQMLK
UniProt O95298: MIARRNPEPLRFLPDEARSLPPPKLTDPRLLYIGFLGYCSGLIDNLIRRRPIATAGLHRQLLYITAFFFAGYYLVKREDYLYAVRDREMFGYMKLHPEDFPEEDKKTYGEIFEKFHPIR

B1: ECSIT (endogenous, HEK293T-derived cells) (protein, UniProt Q9BQ95 49-431)
chain: SSEQSLVPSPPEPRQRPTKALVPFEDLFGQAPGGERDKASFLQTVQKFAEHSVRKRGHIDFIYLALRKMREYGVERDLAVYNQLLNIFPKEVFRPRNIIQRIFVHYPRQQECGIAVLEQMENHGVMPNKETEFLLIQIFGRKSYPMLKLVRLKLWFPRFMNVNPFPVPRDLPQDPVELAMFGLRHMEPDLSARVTIYQVPLPKDSTGAADPPQPHIVGIQSPDQQAALARHNPARPVFVEGPFSLWLRNKCVYYHILRADLLPPEEREVEETPEEWNLYYPMQLDLEYVRSGWDNYEFDINEVEEGPVFAMCMAGAHDQATMAKWIQGLQETNPTLAQIPVVFRLAGSTRELQTSSAGLEEPPLPEDHQEEDDNLQRQQQGQS
B2: ACAD9 (endogenous, HEK293T-derived cells), Q9H845 38-621 (protein)
chain: AFAKELFLGKIKKKEVFPFPEVSQDELNEINQFLGPVEKFFTEEVDSRKIDQEGKIPDETLEKLKSLGLFGLQVPEEYGGLGFSNTMYSRLGEIISMDGSITVTLAAHQAIGLKGIILAGTEEQKAKYLPKLASGEHIAAFCLTEPASGSDAASIRSRATLSEDKKHYILNGSKVWITNGGLANIFTVFAKTEVVDSDGSVKDKITAFIVERDFGGVTNGKPEDKLGIRGSNTCEVHFENTKIPVENILGEVGDGFKVAMNILNSGRFSMGSVVAGLLKRLIEMTAEYACTRKQFNKRLSEFGLIQEKFALMAQKAYVMESMTYLTAGMLDQPGFPDCSIEAAMVKVFSSEAAWQCVSEALQILGGLGYTRDYPYERILRDTRILLIFEGTNEILRMYIALTGLQHAGRILTTRIHELKQAKVSTVMDTVGRRLRDSLGRTVDLGLTGNHGVVHPSLADSANKFEENTYCFGRTVETLLLRFGKTIMEEQLVLKRVANILINLYGMTAVLSRASRSIRIGLRNHDHEVLLANTFCVEAYLQNLFSLSQLDKYAPENLDEQIKKVSQQILEKRAYICAHPLDRTC
B3: TMEM126B (endogenous, HEK293T-derived cells) (protein, UniProt Q8IUX1 1-230)
chain: MVVFGYEAGTKPRDSGVVPVGTEEAPKVFKMAASMHGQPSPSLEDAKLRRPMVIEIIEKNFDYLRKEMTQNIYQMATFGTTAGFSGIFSNFLFRRCFKVKHDALKTYASLATLPFLSTVVTDKLFVIDALYSDNISKENCVFRSSLIGIVCGVFYPSSLAFTKNGRLATKYHTVPLPPKGRVLIHWMTLCQTQMKLMAIPLVFQIMFGILNGLYHYAVFEETLEKTIHEE
B4: ACAD9 (endogenous, HEK293T-derived cells) (protein, UniProt Q9H845 38-621)
chain: B2 chain
B5: TIM22 (protein, UniProt Q9Y584 1-194)
chain: MAAAAPNAGGSAPETAGSAEAPLQYSLLLQYLVGDKRQPRLLEPGSLGGIPSPAKSEEQKMIEKAMESCAFKAALACVGGFVLGGAFGVFTAGIDTNVGFDPKDPYRTPTAKEVLKDMGQRGMSYAKNFAIVGAMFSCTECLIESYRGTSDWKNSVISGCITGGAIGFRAGLKAGAIGCGGFAAFSAAIDYYLR
B6: TIM29 (protein, UniProt Q9BSF4 32-260)
chain: GSWARALLRDYAEACRDASAEARARPGRAAVYVGLLGGAAACFTLAPSEGAFEEALLEASGTLLLLAPATRNRESEAFVQRLLWLRGRGRLRYVNLGLCSLVYEAPFDAQASLYQARCRYLQPRWTDFPGRVLDVGFVGRWWVLGAWMRDCDINDDEFLHLPAHLRVVGPQQLHSETNERLFDEKYKPVVLTDDQVDQALWEEQVLQKEKKDRLALSQAHSLVQAEAPR
B7: AGK (protein, UniProt Q53H12 1-422)
chain: MTVFFKTLRNHWKKTTAGLCLLTWGGHWLYGKHCDNLLRRAACQEAQVFGNQLIPPNAQVKKATVFLNPAACKGKARTLFEKNAAPILHLSGMDVTIVKTDYEGQAKKLLELMENTDVIIVAGGDGTLQEVVTGVLRRTDEATFSKIPIGFIPLGETSSLSHTLFAESGNKVQHITDATLAIVKGETVPLDVLQIKGEKEQPVFAMTGLRWGSFRDAGVKVSKYWYLGPLKIKAAHFFSTLKEWPQTHQASISYTGPTERPPNEPEETPVQRPSLYRRILRRLASYWAQPQDALSQEVSPEVWKDVQLSTIELSITTRNNQLDPTSKEDFLNICIEPDTISKGDFITIGSRKVRNPKLHVEGTECLQASQCTLLIPEGAGGSFSIDSEEYEAMPVEVKLLPRKLQFFCDPRKREQMLTSPTQ

Key:
[1] = biological target: T1, COA1 with a C-terminal Flag tag (human) (UniProt Q9GZY4); test: affinity purification with mass spectrometry
T1 sequence: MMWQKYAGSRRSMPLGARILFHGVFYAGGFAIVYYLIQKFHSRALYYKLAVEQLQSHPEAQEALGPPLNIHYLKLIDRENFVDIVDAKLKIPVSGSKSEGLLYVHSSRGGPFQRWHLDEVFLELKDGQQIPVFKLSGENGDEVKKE

[2] = biological target: NDUFAF1 fused to the promiscuous biotin ligase BirA* (human) (UniProt Q9Y375); test: proximity labelling
[3] = biological target: T1, COA1 with a C-terminal Flag tag (human); test: affinity purification with mass spectrometry; remark: listed apart in the source
[4] = biological target: TMEM186 with a C-terminal Flag epitope (human) (UniProt Q96B77); test: affinity purification with mass spectrometry
[5] = biological target: TMEM186 with a C-terminal Flag epitope (human) (UniProt Q96B77); test: affinity purification with mass spectrometry; remark: listed apart in the source
[6] = biological target: T2, NDUFAF1 fused to the promiscuous biotin ligase BirA* (human), Q9Y375; test: proximity labelling; conditions: remark: other sources report otherwise
T2 chain: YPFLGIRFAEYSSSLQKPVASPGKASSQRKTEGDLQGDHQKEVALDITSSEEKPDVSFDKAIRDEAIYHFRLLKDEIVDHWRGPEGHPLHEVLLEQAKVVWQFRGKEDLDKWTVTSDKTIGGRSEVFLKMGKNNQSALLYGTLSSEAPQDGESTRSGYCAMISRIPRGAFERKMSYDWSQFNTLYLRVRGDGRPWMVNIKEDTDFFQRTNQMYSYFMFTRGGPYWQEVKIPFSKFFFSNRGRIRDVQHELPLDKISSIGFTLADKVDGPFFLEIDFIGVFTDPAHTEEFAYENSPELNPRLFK

Molecule | binding [1] | binding [2] | binding [3] | binding [4] | binding [5] | binding [6]
NDUFC2, complex I subunit of the ND2 module (from UniProt O95298 1-119) | binds |  |  |  |  | 
TMEM186 (endogenous, HEK293T-derived cells) (from UniProt Q96B77) | binds | binds |  |  |  | 
NDUFAF1 (endogenous, HEK293T-derived cells) (from UniProt Q9Y375 25-327) | binds |  | binds | binds | binds | 
B1 | binds | binds | binds | binds | binds | 
B2 |  |  |  |  |  | binds
B3 |  | binds |  | binds |  | 
B4 | binds |  | binds | binds | binds | 
B5 |  |  |  | binds |  | 
B6 |  |  |  | binds |  | 
B7 |  |  |  | binds |  | 
